# The full ranking holds about 1,700 compounds; the median of “T3 sensor activation Q score (MG/GFP ratio z-score vs DMSO controls)” is about 0.25, and the highest 2% start at about 1.9. The list shows a part of the results.
# Test system: ppGalNAc-T3 sensor
# Experiment: T3 sensor activation Q score (MG/GFP ratio z-score vs DMSO controls) (SD units); higher = more sensor activation (inhibition of ppGalNAc-T3 glycosylation)
# Conditions: HEK293 sensor cells; 10 µM; 6 h
# Experimental: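 Cells were treated with compound at 10 uM for 6 h, then MG/GFP ratio was read by flow cytometry (10,000 cells per well, duplicate wells). Q = (R - R_neg)/SD_neg relative to DMSO vehicle controls; the signal rises when the glycosyltransferase is inhibited.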
row,Compound,T3 sensor activation Q score
1,CC(C)(C)c1ccc(OCC(=O)O)cc1,0.15
2,COc1cc(Nc2c(C#N)cnc3cc(OCCCN4CCN(C)CC4)c(OC)cc23)c(Cl)cc1Cl,1
3,CC(=O)[C@@]1(O)[C@H](C)C[C@H]2[C@@H]3C=C(C)C4=Cc5c(cnn5-c5ccccc5)C[C@]4(C)[C@H]3[C@@H](O)C[C@@]21C,5
4,COc1ccc(C2=NC(=O)NC2c2ccc(OC)cc2)cc1 (configuration not stated),1.05
5,N#CN=CN1CC=C(c2ccc(Cl)cc2)CC1,-0.7
6,CCCCCn1cnc2c(=S)nc(N)[nH]c21,-0.25
7,CC(=NNC(N)=O)c1ccc(Cl)c(-n2cccc2)c1,0.35
8,O=C(Nc1cccc([N+](=O)[O-])c1)c1ccc2ccccc2c1O,-1.9
9,Cc1cc2cc3n(c2nn1)N=C(Cl)CC3,-0.1
10,c1cc2c3c(cccc3c1)NC1(CCC3(CC1)Nc1cccc4cccc(c14)N3)N2,-1.75
11,O=C(Nc1ccc(Cl)cc1)c1cc2c(cc1O)[nH]c1ccccc12,-0.75
12,CCOc1ccc2sc(NS(=O)(=O)c3ccc(N)cc3)nc2c1,-0.25
13,CCCCOc1nc2c(c(=O)n(C)c(=O)n2C)n1C,1.35
14,O=C1OCC/C1=C\NCCCCCCCCN/C=C1\CCOC1=O,1.2
15,S=C1SCN(CCc2ccccc2)CN1CCc1ccccc1,0
16,O=C(O)c1nn(-c2ccccc2-c2n[nH]c(=O)[nH]c2=O)c(=O)[nH]c1=O,-0.1
17,NCc1c(O)ccc2ccccc12,0.95
18,[O-][n+]1ccc(CC(O)(C(F)(F)F)C(F)(F)F)cc1,-0.1
19,O=[N+]([O-])c1cc([N+](=O)[O-])c2cccnc2c1O,-1
20,CN(C)S(=O)(=O)c1ccc(N)c([N+](=O)[O-])c1,0.85
21,CCCCNCC1CCCO1 (configuration not stated),-0.1
22,Oc1ccccc1-c1nnco1,0.4
23,Cc1ccc(-c2cc(C(F)(F)F)nn2-c2ccc(S(N)(=O)=O)cc2)cc1,0.05
24,Cn1cnc([N+](=O)[O-])c1S(=O)(=O)Oc1cccc2ccccc12,-0.65
25,Nc1ncnc2c1ncn2C1OC(CO)C(O)C1N (configuration not stated),0.2

# Single entries from the entries so far:
# Under T3 sensor activation Q score, CCOc1ccc2sc(NS(=O)(=O)c3ccc(N)cc3)nc2c1 reads -0.25
# Under T3 sensor activation Q score, O=C1OCC/C1=C\NCCCCCCCCN/C=C1\CCOC1=O reads 1.2
# Under T3 sensor activation Q score, O=[N+]([O-])c1cc([N+](=O)[O-])c2cccnc2c1O reads -1
# Under T3 sensor activation Q score, Nc1ncnc2c1ncn2C1OC(CO)C(O)C1N (configuration not stated) reads 0.2
# Under T3 sensor activation Q score, [O-][n+]1ccc(CC(O)(C(F)(F)F)C(F)(F)F)cc1 reads -0.1

# The list goes on.

row,Compound,T3 sensor activation Q score
1,CCC(C)(C)c1ccc(Oc2cccc(C(=O)O)c2)cc1,1.3
2,CC(C=CC1(O)C(C)=CC(=O)CC1(C)C)=CC(=O)O (configuration not stated),-1.75
3,Oc1c(Cl)cc(Cl)cc1C1Nc2ccccc2-n2cccc21 (configuration not stated),1.4
4,Oc1c(CN2CCN(c3ccccc3)CC2)cc(Br)c2cccnc12,-0.15
5,CC(C)N(C(=O)c1cccc([N+](=O)[O-])c1)C(C)C,-0.3
6,CC(C)COC(=O)NC1c2ccccc2Oc2ccccc21,0.2
7,Cc1cc(=O)[nH]c(N)n1,-0.8
8,Cn1c(=S)c2[nH]c(SCCN3CCCC3)nc2n(C)c1=O,-0.05
9,CNC(=O)c1nn(C)c(=O)[nH]c1=O,1.1
10,N#CC(c1ccccc1)C(C/C(=N\O)c1ccccc1)c1ccccc1 (configuration not stated),1.8
11,CCc1cccc2[nH]c3cc([N+](=O)[O-])ccc3c12,-0.3
12,NC1=C(O)C(=O)C(c2ccccc2)O1 (configuration not stated),0.05
13,CCC1=C(c2ccc(OC)cc2)CCC(C(=O)O)C1C (configuration not stated),0.1
14,CCOC(=O)c1ccc(Nc2sc(C(=O)c3cccc([N+](=O)[O-])c3)c(N)c2C#N)cc1,-0.6
15,CC(=O)OCC1OC(COC(C)=O)(c2ccc(C)cc2)C(OC(C)=O)C1OC(C)=O (configuration not stated),-0.1
16,Nc1ccc(N=Nc2ccc(O)cc2)c(N)n1,1.5
17,C#CC1(N2CCCCC2)CCCCC1,0.4
18,Nc1nc(=S)c2ncn(C3CCCC3)c2[nH]1,-1.55
19,CCN(c1ccccc1)c1nc(Cl)nc2c1cnn2C,0.1
20,C=CCNC(=S)N1CCN(c2ccccc2Cl)CC1,-0.25
21,Cc1csc(N=Nc2ccc(N(C)C)cc2)[n+]1[O-],1.45
22,C[C@]12CC[C@@H]3c4ccc(O)cc4C[C@@H](CCCCCCCCC[S+]([O-])CCCC(F)(F)C(F)(F)F)[C@H]3[C@@H]1CC[C@@H]2O (some centres not stated),-1.15
23,c1ccc(-c2nnc3oc(-c4cccs4)nn23)cc1,-0.2
24,Nc1ncnc2c([C@@H]3O[C@H](CO)[C@@H](O)[C@H]3O)c[nH]c12,0.15
25,CCOP(=O)(OCC)/C(C#N)=C/c1ccc([N+](=O)[O-])cc1,0.45

row,Compound,T3 sensor activation Q score
1,Cc1cc(=O)n2[nH]c(-c3ccc(C(C)(C)C)cc3)cc2n1,-1.05
2,O=C(CC1C=Cc2ccccc2N1C(=O)c1ccccc1)c1ccccc1 (configuration not stated),-1.4
3,S=c1[nH]c2ccccc2c2ccccc12,1.2
4,c1ccc2c(c1)nnn2-c1ccncc1,-1.2
5,O=C(CCBr)N1CCN(C(=O)CCBr)CC1,-0.1
6,CNC(=O)c1ccc(N2C(=S)N(c3ccc(C#N)c(C(F)(F)F)c3)C(=O)C2(C)C)cc1F,-1.1
7,Clc1c(Cl)c(Cl)c2n[nH]nc2c1Cl,0.35
8,CC(=O)Nc1ccc2cc3ccc(NC(C)=O)cc3nc2c1,0.2
9,NCC(=O)Nc1ccc(Cl)cc1C(=O)c1ccc[nH]1,0.65
10,Cc1nnsc1C(=O)NCc1c(F)cccc1Cl,-0.4
11,O=P(O)(O)C(O)(Cn1ccnc1)P(=O)(O)O,0.1
12,CCc1nc(NC(C)(C)C)c2cnn(-c3ccccc3)c2n1,-0.4
13,O=C(O)c1ccccc1C(=O)Nc1cccc([N+](=O)[O-])c1,0.65
14,Nc1ccccc1Sc1cc(Cl)nnc1Cl,0.85
15,Oc1ccc(Cc2ccccc2Cl)c(O)c1,-0.5
16,O=C(Nc1ccc(F)cc1)Oc1ccc[nH]c1=O,0
17,c1ccc(-n2nnnc2-c2cccc3ccccc23)cc1,-0.85
18,O=C(O)c1cc(N2C(=O)C=CC2=O)cc(N2C(=O)C=CC2=O)c1,0.75
19,CCOc1ccc(/C=C2\CCc3ccccc3C2=O)cc1,1.85
20,CCCCCCCCCC[C@H](C(=O)O)[C@]1(C(=O)O)CCC(=O)O1,1.2
21,CCOC(=O)c1c[nH][nH]c1=O,1.3
22,CCOC(=O)Nc1ccc2nc(-c3cscn3)[nH]c2c1,-1.8
23,Oc1ccc2c(ccc3[nH]cnc32)c1,0.3
24,CSc1ncc2[nH]c(C(O)c3ccccc3)nc2n1 (configuration not stated),-0.6
25,Cc1c(Cc2ccccc2)[n+](=O)c2ccccc2n1[O-],0.1

# Given with tabs: entries from further up
row	Compound	T3 sensor activation Q score
13	O=C(O)c1ccccc1C(=O)Nc1cccc([N+](=O)[O-])c1	0.65
14	Nc1ccccc1Sc1cc(Cl)nnc1Cl	0.85

# More records.

row,Compound,T3 sensor activation Q score
1,Cc1nc2ccc(Cl)cn2c1[N+](=O)[O-],-0.55
2,Cc1ccc2c(c1)c1ccc3c(c1n2C)C(=O)C=CC3=O,-1.5
3,O=c1cc(-c2ccc(Cl)cc2)[nH]c2ccccc12,0
4,Cn1c(=O)c2c(ncn2CCOC(=O)C(C)(C)Oc2ccc(Cl)cc2)n(C)c1=O,-0.8
5,CN1CCC(=C2c3ccccc3C(O)c3ccccc32)CC1 (configuration not stated),-1.45
6,C[C@]12CC[C@H](O)CC1=CC[C@@H]1[C@@H]2CC[C@]2(C)C(c3cccnc3)=CC[C@@H]12,-0.55
7,CCN(CC)c1ccc(/C=C/c2cc(-c3ccccc3)c3ccccc3n2)cc1,-1.3
8,c1ccc(NCCSc2nc3ccccc3s2)cc1,-0.65
9,c1ccc2nc(NN=C3CCCCC3)ccc2c1,-0.55
10,Cn1nnc2c(C(N)=O)ncn2c1=O,0.75
11,Cc1ccc2c(c1)sc1nncn12,-0.15
12,Cc1cc(C)n(C(N)=NC(=O)c2ccccc2)n1,-0.1
13,Cc1cc(=O)c2c(o1)C(=O)c1occc1C2=O,1.55
14,CNc1ncn(-c2c(C)cccc2C)c(=O)n1,1.05
15,Cc1ccc(S(=O)(=O)N2CC=C(N)N2)cc1,-0.2
16,Nc1cc2c3c(cccc3c1)C(=O)N(CCN1CCCC1)C2=O,0.1
17,O=[N+]([O-])c1cc(F)c2cccnc2c1O,1.8
18,C#CCNc1ccc(C(=O)OCC)cc1,-1.05
19,O=C1C=C(c2ccccc2)OC(=O)C1C(=O)c1ccccc1 (configuration not stated),0.8
20,CCOc1ccc(NC(=O)Nc2cc(C(C)C)c(O)cc2C)cc1,1.35
21,CC1=CC2C(C(O)CC3(C)C2CC(C)C32OCOC23COCO3)C2(C)CC(=CO)C(=O)C=C12 (configuration not stated),-3.35
22,CCOC(=O)c1csc(-c2ccc(COC(=O)c3ccccc3)o2)n1,1.25
23,COc1ccc(-c2cc(-c3ccccc3)c(-c3ccccc3)nn2)cc1,0.95
24,Cc1ccncc1C(N)=O,1.9
25,CC(C)(C)C1=NN=C2c3ccccc3C(=O)C21 (configuration not stated),0.25

row,Compound,T3 sensor activation Q score
1,CN(C)Cc1c[nH]c2nccnc12,-1.4
2,Brc1csc2ncccc12,1.05
3,c1ccc(-c2nc3ccccc3s2)nc1,-0.2
4,Cc1c(O)cnc2nn(-c3ccccc3)c(=N)n12,1.45
5,COc1cc(/C=C2\CCOC2=O)cc(OC)c1OC,1.15
6,CO[C@H]1C[C@@H]2CC[C@@H](C)[C@@](O)(O2)C(=O)C(=O)N2CCCC[C@H]2C(=O)O[C@H]([C@H](C)C[C@@H]2CC[C@@H](OC(=O)C(C)(CO)CO)[C@H](OC)C2)CC(=O)[C@H](C)/C=C(\C)[C@@H](O)[C@@H](OC)C(=O)[C@H](C)C[C@H](C)/C=C/C=C/C=C/1C,-1.65
7,Cn1c(=O)c2c(nc(OCCc3ccccc3)n2C)n(C)c1=O,1.6
8,O=[N+]([O-])c1ccc(Sc2ncccn2)c([N+](=O)[O-])c1,0.25
9,C1CCc2nc3c(nc2C1)CCCC3,-0.2
10,O=C(O)/C(Cc1cn[nH]n1)=N\O,-0.95
11,Cc1ccc(NC(=O)N2CCN(C)CC2)cc1NC(=O)N1CCN(C)CC1,0.25
12,CNC(=O)OCN1C(=O)C2CC=CCC2C1=O (configuration not stated),1.3
13,COC1OC2COC(c3ccccc3)OC2C(=O)C1NC(=O)c1ccccc1 (configuration not stated),0.3
14,C=CCN=C(NC#N)SC,0.05
15,Cc1ccc(S(=O)(=O)NNC(=O)C23CCC(CC2)C3)cc1,0.85
16,Nc1ncnc2c1ncn2C=C=CCO,-0.8
17,Cc1cccc(C)c1NC(=O)NCc1ccco1,1.25
18,C1CCC(NC2=NCCO2)CC1,-1.2
19,CN(C)c1ccc(/C=C2/C=C(c3ccc4c(c3)CCCC4)OC2=O)cc1,0.9
20,Cc1nc(Nc2ccc(F)cc2)nc(Nc2ccc(F)cc2)c1[N+](=O)[O-],-1.05
21,Cc1nc(N)nc(Cl)c1CCC1OCCO1,0.8
22,CCOC(=O)c1[nH]c(CO)c(C(=O)OCC)c1C,-0.1

# From the supplement of paper PMC5407854, “Inhibitor of ppGalNAc-T3-mediated O-glycosylation blocks cancer cell invasiveness and lowers FGF23 levels” (eLife, 2017)
